# Assay results as given in PMC7762955, “Antibiotic binding releases autoinhibition of the TipA multidrug-resistance transcriptional regulator” (The Journal of Biological Chemistry, 2020).
# Tests used:
# Experiment in all cases: fluorescence polarization
# Mta (Bacillus subtilis) = biological target: T1, Mta (Bacillus subtilis) (UniProt P71039); details: 20 mM Tris-HCl pH 7.5, 200 mM NaCl, 5% (v/v) glycerol, 298 K; 10 nM labeled DNA; recombinant protein; residues 1-257; protein details: His6 (pET-28a); label: 5'-carboxyfluorescein
# T1 sequence (looked up): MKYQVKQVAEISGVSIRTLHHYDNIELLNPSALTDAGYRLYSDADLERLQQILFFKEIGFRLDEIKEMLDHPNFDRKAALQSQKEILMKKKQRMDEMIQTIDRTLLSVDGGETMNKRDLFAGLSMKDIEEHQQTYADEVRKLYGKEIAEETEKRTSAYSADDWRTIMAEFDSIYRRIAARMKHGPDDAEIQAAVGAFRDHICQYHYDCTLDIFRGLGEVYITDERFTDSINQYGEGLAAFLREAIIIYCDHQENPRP
# [1] = biological target: T2, MtaH7 (Bacillus subtilis) (UniProt P71039); details: 20 mM Tris-HCl pH 7.5, 200 mM NaCl, 5% (v/v) glycerol, 298 K; 10 nM labeled DNA; recombinant protein; residues 1-144; protein details: His6 (pET-28a); label: 5'-carboxyfluorescein
# T2 sequence (looked up): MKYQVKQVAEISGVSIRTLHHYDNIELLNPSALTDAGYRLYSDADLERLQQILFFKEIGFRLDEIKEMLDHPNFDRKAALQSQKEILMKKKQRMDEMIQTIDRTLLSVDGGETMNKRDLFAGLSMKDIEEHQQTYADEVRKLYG
# MtaN (Bacillus subtilis) = biological target: T3, MtaN (Bacillus subtilis) (UniProt P71039); details: 20 mM Tris-HCl pH 7.5, 200 mM NaCl, 5% (v/v) glycerol, 298 K; 10 nM labeled DNA; recombinant protein; protein details: His6 (pET-28a); label: 5'-carboxyfluorescein
# T3 sequence (looked up, limits assumed): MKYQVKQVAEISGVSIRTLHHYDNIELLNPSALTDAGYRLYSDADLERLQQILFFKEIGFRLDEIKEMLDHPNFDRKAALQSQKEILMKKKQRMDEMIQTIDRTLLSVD
# [2] = biological target: T4, SkgA (Caulobacter crescentus) (UniProt B8H172); details: 20 mM Tris-HCl pH 7.5, 200 mM NaCl, 5% (v/v) glycerol, 298 K; 10 nM labeled DNA; recombinant protein; residues 1-255; protein details: His6 (pET-28a); label: 5'-carboxyfluorescein
# T4 sequence (looked up): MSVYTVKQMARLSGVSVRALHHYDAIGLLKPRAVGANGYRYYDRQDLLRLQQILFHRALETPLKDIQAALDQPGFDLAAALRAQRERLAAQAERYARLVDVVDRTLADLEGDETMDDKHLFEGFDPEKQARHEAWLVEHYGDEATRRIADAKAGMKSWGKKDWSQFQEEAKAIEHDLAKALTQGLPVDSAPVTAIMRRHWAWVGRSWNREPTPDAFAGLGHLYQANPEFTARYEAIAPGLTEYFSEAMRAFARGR
# [3] = biological target: T5, SkgAH7 (Caulobacter crescentus) (UniProt B8H172); details: 20 mM Tris-HCl pH 7.5, 200 mM NaCl, 5% (v/v) glycerol, 298 K; 10 nM labeled DNA; recombinant protein; residues 1-141; protein details: His6 (pET-28a); label: 5'-carboxyfluorescein
# T5 sequence (looked up): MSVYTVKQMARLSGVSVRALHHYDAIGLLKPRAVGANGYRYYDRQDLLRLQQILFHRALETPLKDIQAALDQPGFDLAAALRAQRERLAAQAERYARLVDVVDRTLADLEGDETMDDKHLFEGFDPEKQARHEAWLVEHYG
# [4] = biological target: T6, SkgAN (Caulobacter crescentus) (UniProt B8H172); details: 20 mM Tris-HCl pH 7.5, 200 mM NaCl, 5% (v/v) glycerol, 298 K; 10 nM labeled DNA; recombinant protein; protein details: His6 (pET-28a); label: 5'-carboxyfluorescein
# T6 sequence (looked up, limits assumed): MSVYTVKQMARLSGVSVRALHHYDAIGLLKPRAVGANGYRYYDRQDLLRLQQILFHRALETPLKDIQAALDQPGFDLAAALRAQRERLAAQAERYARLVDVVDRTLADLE
# [5] = biological target: T7, TipAL (Streptomyces lividans) (UniProt P0A4T9); details: no thiostrepton; 20 mM Tris-HCl pH 7.5, 200 mM NaCl, 5% (v/v) glycerol, 298 K; 10 nM labeled DNA; recombinant protein; residues 1-253; protein details: His6 (pET-28a); label: 5'-carboxyfluorescein
# T7 sequence (looked up): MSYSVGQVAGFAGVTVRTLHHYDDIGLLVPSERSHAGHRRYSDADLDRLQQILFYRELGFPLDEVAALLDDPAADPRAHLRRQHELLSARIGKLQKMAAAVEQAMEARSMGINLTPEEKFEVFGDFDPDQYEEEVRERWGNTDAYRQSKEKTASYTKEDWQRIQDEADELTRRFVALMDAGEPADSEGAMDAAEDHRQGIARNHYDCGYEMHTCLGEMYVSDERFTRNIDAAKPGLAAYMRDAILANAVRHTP
# [6] = biological target: T8, TipALCC T15C,E134C (Streptomyces lividans) (UniProt P0A4T9); details: no thiostrepton; 20 mM Tris-HCl pH 7.5, 200 mM NaCl, 5% (v/v) glycerol, 298 K; 10 nM labeled DNA; recombinant protein; protein details: His6 (pET-28a); label: 5'-carboxyfluorescein
# T8 sequence (looked up, limits assumed): T7 sequence (looked up) with T15C, E134C
sequence,measurement,setting,value
TTGACCCTAACGTTGCGTGATTGTTT (double strand) [pmta],binding result,Mta (Bacillus subtilis),binds more weakly
same,binding result,[1],binds more weakly
same,binding result,MtaN (Bacillus subtilis),binds
TTGACCCTCACGCCACGTCAGACCTG (double strand) [pskgA],binding result,[2],binds more weakly
same,binding result,[3],binds more weakly
same,binding result,[4],binds
TTGCACCTCACGTCACGTGAGGAGGC (double strand) [ptipA],Kd,[5],380 nM
same,binding result,[6],no binding

# Substitutions are numbered along the chain they refer to. For some assays here: A negative result means that nothing was seen under these conditions. Where a protein sequence is shown, tags need not be part of it. For some assays here: Weaker means in comparison with the reference protein, sequence or condition of that experiment. For some assays here: The exact form of at least one protein or probe is not confirmed. For some assays here: At least one verdict was read from the data and is not stated in words by the source.
